Test results from US20250332201A1, “PHARMACEUTICAL COMPOSITION, MEGASPHAERA, AND USE THEREOF” (MOON (GUANGZHOU) BIOTECH CO., LTD., priority 2022, published 2025).
At least one compound was matched to its structure with a doubt left.

Key:
Assay in all cases: Antibiotic sensitivity test, disk diffusion method
Type in all cases: cell-based, Megasphaera sp.
strain MNH05026 = test system: strain MNH05026
Experimental: (§1) Antibiotic sensitivity tests of the strains MNH05026, MNH22004, and MNH27256: Antibiotic sensitivity tests were carried out on the strains MNH05026, MNH22004, and MNH27256 by a disk diffusion method.

strain MNH22004 = test system: strain MNH22004
Experimental: as §1

strain MNH27256 = test system: strain MNH27256
Experimental: as §1

CN(C)[C@@H]1C(O)=C(C(N)=O)C(=O)[C@@]2(O)C(O)=C3C(=O)c4c(O)cccc4[C@@](C)(O)[C@H]3C[C@@H]12 [Tetracycline]
sensitive: Sensitivity or resistance of strain MNH05026 to the antibiotic (strain MNH05026) | Sensitivity or resistance of strain MNH22004 to the antibiotic (strain MNH22004) | Sensitivity or resistance of strain MNH27256 to the antibiotic (strain MNH27256)
